Measurements as given in PubChem BioAssay AID330 (DTP/NCI, 2004).
The list does not hold the whole screen: it gathers tests that were run many times, whatever their T/C, doses with no T/C, and many T/C values between a quarter and a half above the control. Other doses and runs of a compound stand elsewhere. T/C gives the treated animals as a percentage of the vehicle group. Some doses have a count of surviving animals in place of a T/C: the source holds a T/C of zero for them, seemingly a mark for toxic or unscored doses. Some survivor counts are full or nearly so, which does not show that the dose was tolerated: survival well below the control is almost never listed, so the zero probably covers shortened survival too. Survivors were counted at the toxicity check, usually on the fifth day, unless a day is given; later deaths do not show. Schedule codes are those of the source, read here as Q, the interval in days (D) or hours (H), X, the number of doses. Counts like (3×) say how often a value occurs here. For survival time, the PubChem record calls one and a half times the control and up active, and a quarter to a half above the control has no call in these data; cut-offs in other NCI protocols can differ. Some entries hold several experiments; the results are listed from low to high. Some T/C values carry the count of animals alive at the toxicity check (mostly the fifth day); where none is given, no animal had died by that day.

System: P388 leukemia ip, CD2F1 mice, survival T/C
Assay: NCI In Vivo Anticancer Drug Screen. Data for tumor model P388 Leukemia (intraperitoneal) in CD2F1 (CDF1) mice
Details: T/C endpoint: median survival time, higher T/C = longer survival
[1] = dose: 60.0 mg/kg/injection, schedule: Q01DX005 (ip), vehicle: Klucel (hydroxypropylcellulose) (HPC)
[2] = dose: 50.0 mg/kg/injection, schedule: Q01DX009 (ip), vehicle: saline
[3] = dose: 100.0 mg/kg/injection, schedule: Q01DX009 (ip), vehicle: saline
[4] = dose: 200.0 mg/kg/injection, schedule: Q01DX005 (ip), vehicle: Klucel (hydroxypropylcellulose) (HPC)
[5] = dose: 200.0 mg/kg/injection, schedule: Q01DX005 (ip), vehicle: saline
[6] = dose: 240.0 mg/kg/injection, schedule: Q01DX005 (ip), vehicle: saline with Tween-80
[7] = dose: 200.0 mg/kg/injection, schedule: Q01DX005 (ip), vehicle: saline with Tween-80
[8] = dose: 100.0 mg/kg/injection, schedule: Q01DX005 (ip), vehicle: saline with Tween-80

Q: For CCOC(=O)C(=C\c1nncn1-c1ccccc1)/C=C(/O)c1ccccc1, which survivor count [1] is on record?
A: 6 of 6

Q: And the survivor count (dose: 120.0 mg/kg/injection, schedule: Q01DX005 (ip), vehicle: Klucel (hydroxypropylcellulose) (HPC))?
A: 6 of 6

Q: What about the survivor count (dose: 240.0 mg/kg/injection, schedule: Q01DX005 (ip), vehicle: Klucel (hydroxypropylcellulose) (HPC)) of the same molecule?
A: 6 of 6

Q: CCCCCCCCCCC[N+]1([O-])CCCCCC1 was tested. Which survivor count [2] did it give?
A: 6 of 6

Q: And the survivor count [3]?
A: 0 of 6

Q: What about the survivor count (dose: 200.0 mg/kg/injection, schedule: Q01DX009 (ip), vehicle: saline) of the same molecule?
A: 0 of 6

Q: What does the source list for C(=Nc1ccc2c(c1)Cc1ccccc1-2)c1ccc2ccccc2c1?
A: survivor count (dose: 100.0 mg/kg/injection, schedule: Q04DX002 (ip), vehicle: saline): 6 of 6; survivor count (dose: 200.0 mg/kg/injection, schedule: Q04DX002 (ip), vehicle: saline): 6 of 6

Q: For CN(C)n1c(O)c(N=O)sc1=S, which survivor count [4] is on record?
A: 0 of 6

Q: How did the survivor count (dose: 12.5 mg/kg/injection, schedule: Q01DX005 (ip), vehicle: saline with Tween-80) turn out when Fc1cccc2c(C#Cc3ccccc3)c3ccccc3c(C#Cc3ccccc3)c12 was run?
A: 5 of 5

Q: What about the survivor count (dose: 50.0 mg/kg/injection, schedule: Q01DX005 (ip), vehicle: saline with Tween-80) of the same molecule?
A: 5 of 5 (2×)

Q: C/C1=C/C(C)C(O)C(O)C(=O)C2(C)CNC3=C(O2)C(=O)c2c(cc(C)c(O)c2C1=O)C3=O (stereo not given) was tested. Which T/C (dose: 2.0 mg/kg/injection, schedule: Q01DX009 (ip), vehicle: distilled water + Tween-80) did it give?
A: 132 % of control

Q: And the T/C (dose: 4.0 mg/kg/injection, schedule: Q01DX009 (ip), vehicle: distilled water + Tween-80)?
A: 137 % of control

Q: Which results are given for COc1c(OC2OC(CO)C(O)C(O)C2O)cc2c(c1OC)-c1ccc(OC)c(=O)cc1C(NC(C)=O)CC2 (stereo not given)?
A: T/C (dose: 100.0 mg/kg/injection, schedule: Q01DX005 (ip), vehicle: saline): 126 and 128 % of control; survivor count [5]: 2 of 5

Q: Brc1cn2[n+](c1)[B-]n1cc(Br)c[n+]1[B-]2 was tested. Which survivor count (dose: 120.0 mg/kg/injection, schedule: Q01DX005 (ip), vehicle: saline with Tween-80) did it give?
A: 6 of 6

Q: And the survivor count [6]?
A: 0 of 6

Q: CCC(=O)NC1=CCC(C(C)(C)C)CC1 (stereo not given) was tested. Which survivor count [7] did it give?
A: 0 of 6

Q: With Cc1cccc(Nc2c(C(=O)O)cnc3cc4c(cc23)OCO4)c1C as the molecule, how does the survivor count [1] read?
A: 6 of 6

Q: CC(=O)CCCCCCCCCCCCCCC1=C(C)C(=O)OC1=O was tested. Which survivor count [4] did it give?
A: 5 of 5

Q: How did the T/C [3] turn out when c1ccc(CN2CCOC2)cc1 was run?
A: 133 % of control

Q: With O=C(OC1C(O)OC2COC(=O)c3cc(O)c(O)c(O)c3-c3c(cc(O)c(O)c3O)C(=O)OC2C1O)c1cc(O)c(O)c(O)c1 (stereo not given) as the molecule, how does the survivor count (dose: 30.0 mg/kg/injection, schedule: Q01DX009 (ip), vehicle: saline with Tween-80) read?
A: 6 of 6

Q: With CC(=O)OC(C)/C=C\C#N (stereo not given) as the molecule, how does the T/C (dose: 60.0 mg/kg/injection, schedule: Q01DX005 (ip), vehicle: saline) read?
A: 97, 101, 105, 128 % of control

Q: And the survivor count (dose: 120.0 mg/kg/injection, schedule: Q01DX005 (ip), vehicle: saline)?
A: 0 of 6

Q: And the survivor count (dose: 240.0 mg/kg/injection, schedule: Q01DX005 (ip), vehicle: saline)?
A: 0 of 6

Q: For COc1ccc2nc3cc(Cl)ccc3c(NC(C)CCCN(C)C)c2n1 (stereo not given), which survivor count [5] is on record?
A: 0 of 6

Q: For O=[N+]([O-])c1ccc2nc3c4ccccc4c4ccccc4c3nc2c1, which survivor count (dose: 400.0 mg/kg/injection, schedule: Q01DX009 (ip), vehicle: saline with Tween-80) is on record?
A: 0 of 6

Q: Which survivor count [2] does the source give for CCC(=O)NC(CC(=O)O)c1cccs1 (stereo not given) here?
A: 6 of 6

Q: With COC(=O)C(CCC1CCCCN1)(c1ccccc1)c1ccccc1 (stereo not given) as the molecule, how does the T/C (dose: 50.0 mg/kg/injection, schedule: Q04DX003 (ip), vehicle: saline with Tween-80) read?
A: 130 % of control

Q: What about the survivor count (dose: 150.0 mg/kg/injection, schedule: Q04DX003 (ip), vehicle: saline with Tween-80) of the same molecule?
A: 5 of 6

Q: With COc1cc2c(cc1CN(C)C)[nH]c1c3ccc(Cl)cc3ncc21 as the molecule, how does the survivor count [8] read?
A: 5 of 6

Q: And the survivor count [7]?
A: 1 of 6

Q: Which survivor count (dose: 12.5 mg/kg/injection, schedule: Q01DX009 (ip), vehicle: Klucel (hydroxypropylcellulose) (HPC)) does the source give for COC(=O)C1CC23C4=C(CCC41)CCC1CN4CC(C)C(CC(OC(C)=O)C12COC(C)=O)C43O (stereo not given) here?
A: 6 of 6

Q: And the survivor count (dose: 25.0 mg/kg/injection, schedule: Q01DX009 (ip), vehicle: Klucel (hydroxypropylcellulose) (HPC))?
A: 6 of 6

Q: What about the survivor count (dose: 50.0 mg/kg/injection, schedule: Q01DX009 (ip), vehicle: Klucel (hydroxypropylcellulose) (HPC)) of the same molecule?
A: 6 of 6

Q: What about the survivor count (dose: 100.0 mg/kg/injection, schedule: Q01DX009 (ip), vehicle: Klucel (hydroxypropylcellulose) (HPC)) of the same molecule?
A: 6 of 6

Q: How did the survivor count (dose: 200.0 mg/kg/injection, schedule: Q04DX003 (ip), vehicle: saline with Tween-80) turn out when O=C(O)C(Cc1ccc(OC(=O)C(F)(F)F)cc1)NC(=O)C(F)(F)F (stereo not given) was run?
A: 5 of 6

Q: For N=C(N)c1ccc2oc(CCc3cc4ccc(C(=N)N)cc4[nH]3)cc2c1, which T/C (dose: 25.0 mg/kg/injection, schedule: Q04DX003 (ip), vehicle: suspension in saline) is on record?
A: 129 and 141 % of control

Q: What about the survivor count (dose: 50.0 mg/kg/injection, schedule: Q04DX003 (ip), vehicle: suspension in saline) of the same molecule?
A: 5 of 6

Q: What about the survivor count (dose: 100.0 mg/kg/injection, schedule: Q04DX003 (ip), vehicle: suspension in saline) of the same molecule?
A: 0 of 6

Q: And the survivor count (dose: 200.0 mg/kg/injection, schedule: Q04DX003 (ip), vehicle: suspension in saline)?
A: 0 of 6

Q: And the survivor count (dose: 400.0 mg/kg/injection, schedule: Q04DX003 (ip), vehicle: suspension in saline)?
A: 0 of 6

Q: Which results are given for O=c1oc(-c2cccc([N+](=O)[O-])c2)ns1?
A: survivor count (dose: 75.0 mg/kg/injection, schedule: Q01DX009 (ip), vehicle: Klucel (hydroxypropylcellulose) (HPC)): 1 of 6; survivor count (dose: 150.0 mg/kg/injection, schedule: Q01DX009 (ip), vehicle: Klucel (hydroxypropylcellulose) (HPC)): 0 of 6; survivor count (dose: 300.0 mg/kg/injection, schedule: Q01DX009 (ip), vehicle: Klucel (hydroxypropylcellulose) (HPC)): 0 of 6

Q: For CSc1nc(NC2OCC(O)C(O)C2O)c(C=O)c(=O)n1C (stereo not given), which survivor count [6] is on record?
A: 5 of 6

Q: Which survivor count (dose: 200.0 mg/kg/injection, schedule: Q04DX002 (ip), vehicle: saline with Tween-80) does the source give for c1ccc(-c2ccccc2C2=NC2)c(C2=NC2)c1 here?
A: 5 of 6

Q: And the survivor count (dose: 400.0 mg/kg/injection, schedule: Q04DX002 (ip), vehicle: saline with Tween-80)?
A: 0 of 6

Q: Which results are given for O=C1N(C2CCCCC2)C(/C=C/c2ccccc2)C1(c1ccccc1)c1ccccc1 (stereo not given)?
A: survivor count (dose: 50.0 mg/kg/injection, schedule: Q01DX005 (ip), vehicle: Klucel (hydroxypropylcellulose) (HPC)): 6 of 6; survivor count (dose: 100.0 mg/kg/injection, schedule: Q01DX005 (ip), vehicle: Klucel (hydroxypropylcellulose) (HPC)): 6 of 6

Q: With CC1(O)c2ccccc2C(C)(O)c2c1ccc1ccccc21 (stereo not given) as the molecule, how does the survivor count [7] read?
A: 6 of 6

Q: For Clc1ncccc1-n1cccc1/C=N\N=C/c1cccn1-c1cccnc1Cl, which survivor count [6] is on record?
A: 6 of 6

Q: CCOC(=O)c1cnc(NCCCCCCNc2ncc(C(=O)OCC)c(=O)[nH]2)[nH]c1=O was tested. Which survivor count [4] did it give?
A: 6 of 6

Q: What does the source list for Cc1c2ccccc2c(C)c2c1cc(C(=O)O)c1ccccc12?
A: T/C [8]: 130 and 131 % of control; T/C [7]: 131 % of control [5 of 6 alive]
